Results from publication PMC9706590.
These are yes or no findings as the source states them, for the method shown. Binding seen in cells or lysates may run through a third protein. Some binding calls cover weakened binding; strength is not graded here.

Sequences of proteins named here, by UniProt entry; tags and fusion partners are left off.
UniProt P22626: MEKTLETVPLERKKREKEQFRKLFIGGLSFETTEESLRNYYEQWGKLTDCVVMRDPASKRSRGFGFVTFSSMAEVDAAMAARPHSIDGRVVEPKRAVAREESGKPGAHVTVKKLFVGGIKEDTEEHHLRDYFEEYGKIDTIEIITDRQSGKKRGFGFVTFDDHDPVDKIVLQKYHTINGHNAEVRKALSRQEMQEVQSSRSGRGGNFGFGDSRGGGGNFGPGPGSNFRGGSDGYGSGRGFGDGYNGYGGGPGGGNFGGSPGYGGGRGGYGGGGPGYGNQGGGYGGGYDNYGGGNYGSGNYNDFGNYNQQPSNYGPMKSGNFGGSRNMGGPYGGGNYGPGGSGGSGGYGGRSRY

Biological target: heterogeneous nuclear ribonucleoprotein A2B1 (human (endogenous in RPMI8226)) (UniProt P22626)
Test: co-IP; endogenous proteins in RPMI8226 myeloma cell lysates; immunoprecipitated with anti-DGCR8 or anti-hnRNPA2B1 antibody, detected by Western blot

binding: binds
B1: DiGeorge syndrome critical region 8 (protein, UniProt Q8WYQ5 1-773)
chain: METDESPSPLPCGPAGEAVMESRARPFQALPREQSPPPPLQTSSGAEVMDVGSGGDGQSELPAEDPFNFYGASLLSKGSFSKGRLLIDPNCSGHSPRTARHAPAVRKFSPDLKLLKDVKISVSFTESCRSKDRKVLYTGAERDVRAECGLLLSPVSGDVHACPFGGSVGDGVGIGGESADKKDEENELDQEKRVEYAVLDELEDFTDNLELDEEGAGGFTAKAIVQRDRVDEEALNFPYEDDFDNDVDALLEEGLCAPKKRRTEEKYGGDSDHPSDGETSVQPMMTKIKTVLKSRGRPPTEPLPDGWIMTFHNSGVPVYLHRESRVVTWSRPYFLGTGSIRKHDPPLSSIPCLHYKKMKDNEEREQSSDLTPSGDVSPVKPLSRSAELEFPLDEPDSMGADPGPPDEKDPLGAEAAPGALGQVKAKVEVCKDESVDLEEFRSYLEKRFDFEQVTVKKFRTWAERRQFNREMKRKQAESERPILPANQKLITLSVQDAPTKKEFVINPNGKSEVCILHEYMQRVLKVRPVYNFFECENPSEPFGASVTIDGVTYGSGTASSKKLAKNKAARATLEILIPDFVKQTSEEKPKDSEELEYFNHISIEDSRVYELTSKAGLLSPYQILHECLKRNHGMGDTSIKFEVVPGKNQKSEYVMACGKHTVRGWCKNKRVGKQLASQKILQLLHPHVKNWGSLLRMYGRESSKMVKQETSDKSVIELQQYAKKNKPNLHILSKLQEEMKRLAEEREETRKKPKMSIVASAQPGGEPLCTVDV
